Source: patent WO2023074749A1
No constants are given. Whether binding was seen depends on the method and setting. Some binding calls cover weakened binding; strength is not graded here.

Molecular target: recombinant HER2-Fc protein (human) (UniProt P04626)
Assay: ELISA; peptide on solid phase, recombinant HER2-Fc, HRP-labeled anti-IgG

In the case of ERPYACSCRNCAGPFNLDEYRQRHIRIHTGQKP [pertuzumab alternative molecule Rank 1], the binding is reported as “binds”.

For ERPYACYRYWCMLPFPYSKSDRRHIRIHTGQKP [pertuzumab alternative molecule Rank 2], the binding was “binds”.
